The record followed here is paper PMC5385552.

This assay deals with T1, GST-fused recombinant LIMR (lipocalin-1 interacting membrane receptor) (UniProt Q6UX01).
T1 sequence: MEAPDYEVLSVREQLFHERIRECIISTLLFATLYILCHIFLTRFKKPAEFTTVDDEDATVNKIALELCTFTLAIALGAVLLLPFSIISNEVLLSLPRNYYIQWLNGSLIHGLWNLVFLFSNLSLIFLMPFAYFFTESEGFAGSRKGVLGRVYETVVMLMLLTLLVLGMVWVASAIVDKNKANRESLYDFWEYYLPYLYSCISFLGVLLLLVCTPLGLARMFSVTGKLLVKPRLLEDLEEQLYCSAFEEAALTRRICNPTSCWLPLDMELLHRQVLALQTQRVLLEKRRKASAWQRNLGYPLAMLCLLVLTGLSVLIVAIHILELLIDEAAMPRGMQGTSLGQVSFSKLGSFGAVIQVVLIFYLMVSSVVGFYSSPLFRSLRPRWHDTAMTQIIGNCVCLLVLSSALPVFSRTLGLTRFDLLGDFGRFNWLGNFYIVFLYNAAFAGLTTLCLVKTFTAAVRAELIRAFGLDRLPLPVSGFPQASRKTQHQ
Briefly: affinity purification with mass spectrometry; GST pull-down: 10 ug purified GST-LIMR (or control GST) incubated with 1 mg THP-1 cell lysate at 4 °C for 2 h; SDS-PAGE, Coomassie staining, band identified by mass spectrometry; only the target purified.

These are yes or no findings as the source states them, for the method shown. Binding seen in cells or lysates may run through a third protein. Here binding means that the protein was enriched with, or labelled near, the bait; the list need not be complete. Where a sequence is shown, tags or fusion partners need not be part of it.

B1: aryl hydrocarbon receptor repressor (AHRR), endogenous in THP-1 cells (protein, UniProt A9YTQ3 1-697)
chain: MIPPGECTYAGRKRRRPLQKQRPAVGAEKSNPSKRHRDRLNAELDHLASLLPFPPDIISKLDKLSVLRLSVSYLRVKSFFQVVQEQSSRQPAAGAPSPGDSCPLAGSAVLEGRLLLESLNGFALVVSAEGTIFYASATIVDYLGFHQTDVMHQNIYDYIHVDDRQDFCRQLHWAMDPPQVVFGQPPPLETGDDAILGRLLRAQEWGTGTPTEYSAFLTRCFICRVRCLLDSTSGFLTMQFQGKLKFLFGQKKKAPSGAMLPPRLSLFCIAAPVLLPSAAEMKMRSALLRAKPRADTAATADAKVKATTSLCESELHGKPNYSAGRSSRESGVLVLREQTDAGRWAQVPARAPCLCLRGGPDLVLDPKGGSGDREEEQHRMLSRASGVTGRRETPGPTKPLPWTAGKHSEDGARPRLQPSKNDPPSLRPMPRGSCLPCPCVQGTFRNSPISHPPSPSPSAYSSRTSRPMRDVGEDQVHPPLCHFPQRSLQHQLPQPGAQRFATRGYPMEDMKLQGVPMPPGDLCGPTLLLDVSIKMEKDSGCEGAADGCVPSQVWLGASDRSHPATFPTRMHLKTEPDSRQQVYISHLGHGVRGAQPHGRATAGRSRELTPFHPAHCACLEPTDGLPQSEPPHQLCARGRGEQSCTCRAAEAAPVVKREPLDSPQWATHSQGMVPGMLPKSALATLVPPQASGCTFLP
Consider B1, for which the binding result is “binds”.
